Experimental findings from US20040106120A1, “Diagnosis and treatment of disease” (priority 2000, published 2004) are described below.

The series concerns eczema lesional and non-lesional skin. The series is described as follows: Affymetrix oligonucleotide array gene expression in eczema, involved and uninvolved skin compared to normal skin. The arrangement: species or system human; key: ++: normally expressed; +++: strongly expressed; ++++: highly expressed; +down-regulation. The conditions noted are these: protease genes.

For “SCTE: recombinant Stratum Corneum Tryptic Enzyme expressed in an active form”, the “Expression level Involved” value (eczema lesional skin (involved)) is “++++”. Moreover, under “eczema non-lesional skin (uninvolved)”, the “Expression level Uninvolved” value is recorded as “+++”.
